The text below walks through data of patent US7517840B2, “Optimized perfumery for rinse-off products” (Givaudan Fragrances Corporation, priority 2005, dated 2009).

This series is described as follows: GC-MS headspace release profile of perfume in shampoo, 1/100 dilution in water. The class given is physicochemical. Conditions: Tropical Fruit Perfume. The procedure: Experimental Procedure: Individual odorant to be tested was added to 20 g of shampoo formulation (see formula below in Table 4) at 0.1%.
A 10 gram sample of formulation and fragrance was added to an empty 1000 ml pyrex beaker. This beaker was then filled with 1000 ml of 120 F tap water. Beaker with diluted shampoo sample was then immediately placed into a semi-enclosed plexiglass chamber.
Headspace Sampling: Once beaker was placed into chamber a Carboxan SPME field fiber was held at the top-side opening of the chamber over the beaker containing the sample. […] […] Top of plexiglass chamber was held open for entire 5 minutes of headspace sampling.

Consider `CCCCCCCC1CCC(=O)O1` (centres unmarked) [GAMMA UNDECALACTONE], for which the “GC Abundance” value (40 seconds) worked out at 4000 and the “GC Abundance” value (50 seconds) is given as 7000.
